According to patent publication US20130338155A1, “METHOD FOR TREATING INFECTIONS” (SYNTA PHARMACEUTICALS CORP., priority 2006, published 2013):
Some entries share one result that the patent states for a list of compounds. For at least one compound, name, drawing or mass did not settle the structure.

Test system: Her2
Experiment: IC50 range for Her2 degradation (Method 2, Table 8)
Assay type: cell-based, Human

| Structure (SMILES) | IC50 [nM] |
| --- | --- |
| CCc1cc(-c2nnc(S)n2-c2cccc3c(OC)cccc23)c(O)cc1O [Compound 8, 3-(2,4-Dihydroxy-5-ethyl-phenyl)-4-(5-methoxy-naphthalen-1-yl)-5-mercapto-triazole] | < 3000 |
| CCn1ccc2c(-n3c(S)nnc3-c3ccc(O)cc3O)cccc21 [Compound 13, 3-(2,4-Dihydroxyphenyl)-4-(1-ethyl-indol-4-yl)-5-mercapto-triazole] | < 3000 |
| COc1cccc2c(-n3c(S)nnc3-c3ccc(O)cc3O)cccc12 [Compound 39, 3-(2,4-Dihydroxyphenyl)-4-(5-methoxynaphthalen-1-yl)-5-mercapto-triazole] | < 3000 |
| CCc1cc(-c2nnc(S)n2-c2cccc3ccccc23)c(O)cc1O [Compound 49, 3-(2,4-Dihydroxy-5-ethyl-phenyl)-4-(naphthalen-1-yl)-5-mercapto-triazole] | < 3000 |
| Cc1cc(-c2nnc(S)n2-c2cccc3ccccc23)c(O)cc1O [Compound 63, 3-(2,4-Dihydroxy-5-methyl-phenyl)-4-(naphthalene-1-yl)-5-mercapto-triazole] | < 3000 |
| CCc1cc(-c2nnc(S)n2-c2ccc(OC)c3ccccc23)c(O)cc1O [Compound 76, 3-(2,4-Dihydroxy-5-ethyl-phenyl)-4-(4-methoxy-naphthalen-1-yl)-5-mercapto-triazole] | < 3000 |
| CCc1cc(-c2nnc(S)n2-c2cccc3cc(OC)ccc23)c(O)cc1O [Compound 77, 3-(2,4-Dihydroxy-5-ethyl-phenyl)-4-(6-methoxy-naphthalin-1-yl)-5-mercapto-triazole] | < 3000 |
| CCc1cc(-c2nnc(S)n2-c2ccc(OC)c(C)c2C)c(O)cc1O [Compound 79, 3-(2,4-Dihydroxy-5-ethyl-phenyl)-4-(2,3-dimethyl-4-methoxy-phenyl)-5-mercapto-triazole] | < 3000 |
| Oc1ccc(-c2nnc(S)n2-c2ccc(O)c3ccccc23)c(O)c1 [Compound 87, 3-(2,4-Dihydroxyphenyl)-4-(4-hydroxy-naphthalen-1-yl)-5-mercapto-triazole] | < 3000 |
| CC(C)n1ccc2c(-n3c(S)nnc3-c3ccc(O)cc3O)cccc21 [Compound 88, 3-(2,4-Dihydroxyphenyl)-4-(1-isopropyl-indol-4-yl)-5-mercapto-triazole] | < 3000 |
| Oc1ccc(-c2nnc(S)n2-c2cccc3[nH]ccc23)c(O)c1 [Compound 95, 3-(2,4-Dihydroxy-phenyl)-4-(indol-4-yl)-5-mercapto-triazole] | < 3000 |
| CCc1cc(-c2nnc(S)n2-c2cccc3c2ccn3C(C)C)c(O)cc1O [Compound 100, 3-(2,4-Dihydroxy-5-ethyl-phenyl)-4-(1-isopropyl-indol-4-yl)-5-mercapto-triazole] | < 3000 |
| CCc1cc(-c2nnc(S)n2-c2ccc3c(c2)c(C)c(C)n3C)c(O)cc1O [Compound 103, 3-(2,4-Dihydroxy-5-ethyl-phenyl)-4-(1,2,3-trimethyl-indol-5-yl)-5-mercapto-triazole] | < 3000 |
| COc1cc(-c2nnc(S)n2-c2cccc3ccccc23)c(O)cc1O [Compound 177, 3-(2,4-Dihydroxy-5-methoxy-phenyl)-4-(naphthalen-1-yl)-5-mercapto-triazole] | < 3000 |
| CCc1cc(-c2nnc(S)n2-c2cccc3c(O)cccc23)c(O)cc1O [Compound 178, 3-(2,4-Dihydroxy-5-ethyl-phenyl)-4-(5-hydroxy-naphthalen-1-yl)-5-mercapto-triazole] | < 3000 |
| CCc1cc(-c2nnc(S)n2-c2ccc3[nH]c(C)c(C)c3c2)c(O)cc1O [Compound 185, 3-(2,4-Dihydroxy-5-ethyl-phenyl)-4-(2,3-dimethyl-indol-5-yl)-5-mercapto-triazole] | < 3000 |
| CCc1cc(-c2nnc(S)n2-c2ccc(OC)c3c2ccn3C(C)C)c(O)cc1O [Compound 188, 3-(2,4-Dihydroxy-5-ethyl-phenyl)-4-(1-isopropyl-7-methoxy-indol-4-yl)-5-mercapto-[1,2,4]triazole] | < 3000 |
| Oc1cc(O)c(C2CC2)cc1-c1nnc(S)n1-c1cccc2ccccc12 [Compound 189, 3-(2,4-Dihydroxy-5-cyclopropyl-phenyl)-4-(naphthalene-1-yl)-5-mercapto-triazole] | < 3000 |
| CCc1cc(-c2nnc(S)n2-c2ccc(OC)c(N(CC)CC)c2)c(O)cc1O [Compound 247, 4-(4-(3-(diethylamino)-4-methoxyphenyl)-5-mercapto-4H-1,2,4-triazol-3-yl)-6-ethylbenzene-1,3-diol] | < 3000 |
| CCCN(c1cc(-n2c(S)nnc2-c2cc(CC)c(O)cc2O)ccc1OC)C(C)C [Compound 248, 4-(4-(3-(N-isopropyl-N-propylamino)-4-methoxyphenyl)-5-mercapto-4H-1,2,4-triazol-3-yl)-6-ethylbenzene-1,3-diol] | < 3000 |
| CCc1cc(-c2nnc(S)n2-c2ccc(OC)c(N(C)C(C)C)c2)c(O)cc1O [Compound 249, 4-(4-(3-(N-isopropyl-N-methylamino)-4-methoxyphenyl)-5-mercapto-4H-1,2,4-triazol 3-yl)-6-ethylbenzene-1,3-diol] | < 3000 |
| CCc1cc(-c2nnc(S)n2-c2ccc(OC)c(N(C)CC)c2)c(O)cc1O [Compound 250, 4-(4-(3-(N-ethyl-N-methylamino)-4-methoxyphenyl)-5-mercapto-4H-1,2,4-triazol-3-yl)-6-ethylbenzene-1,3-diol] | < 3000 |
| CCc1cc(-c2nnc(S)n2-c2ccc(OC)c(N(C)C)c2)c(O)cc1O [Compound 251, 4-(4-(3-(dimethylamino)-4-methoxyphenyl)-5-mercapto-4H-1,2,4-triazol-3-yl)-6-ethylbenzene-1,3-diol] | < 3000 |
| CCc1cc(-c2nnc(S)n2-c2cccc(N(C)C)c2)c(O)cc1O [Compound 252, 4-(4-(3-(dimethylamino)phenyl)-5-mercapto-4H-1,2,4-triazol-3-yl)-6-ethylbenzene-1,3-diol] | < 3000 |
| CCc1cc(-c2nnc(S)n2-c2ccc(N(C)C)c(OC)c2)c(O)cc1O [Compound 259, 4-(4-(4-(dimethylamino)-3-methoxyphenyl)-5-mercapto-4H-1,2,4-triazol-3-yl)-6-ethylbenzene-1,3-diol] | < 3000 |
